{"source": "PubChem BioAssay AID1259283 (Sanger Institute, 2017)", "purpose": "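Kinases needed for HT115 growth and partners for drug synergy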 (primary screen)", "cells": "HT115 colorectal cancer cells", "reagent": "siRNA pool against human genes", "challenge": "anchor drug given one day after siRNA: BYL719 at 1 µM, cetuximab at 5 µg/ml, trametinib at 10 nM, or DMSO vehicle alone", "measurement": "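Viability normalised to non-targeting pool #2 wells and averaged over replicates, robust z-score against control wells, and a synergy score for each of three drugs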", "scale": "robust z-score, knock-down alone: higher = more viable cells after knock-down; viability, DMSO vs non-targeting control: higher = more viable cells", "units": "viability, DMSO vs non-targeting control in fraction of control", "call rule": "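a gene counts as essential when its robust z-score with knock-down alone is below -3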", "calls": "active = essential (z below -3, no drug); inactive = no change without drug", "note": "In all, the deposit lists 794 reagents; shown is an unselected part. 14 of all reagents (1.8%) were called active. 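Calls reflect only viability loss without drug; drug synergy does not enter the call.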 No viability above 1 is reported: the scale is capped. Further read-outs or replicates are left out here. Reagent sequences are not shown. The record does not give: the amount of reagent, the time to read-out."}
{"Target gene": "SPHK1 (GeneID 8877)", "PubChem SID": "SID152154122", "robust z-score, knock-down alone": 0.789, "viability, DMSO vs non-targeting control": 1, "activity call": "inactive"}
{"Target gene": "MTOR (GeneID 2475)", "PubChem SID": "SID135620602", "robust z-score, knock-down alone": 0.789, "viability, DMSO vs non-targeting control": 1, "activity call": "inactive"}
{"Target gene": "TSKS (GeneID 60385)", "PubChem SID": "SID56479267", "robust z-score, knock-down alone": 0.789, "viability, DMSO vs non-targeting control": 1, "activity call": "inactive"}
{"Target gene": "PAK4 (GeneID 10298)", "PubChem SID": "SID152147637", "robust z-score, knock-down alone": 0.243, "viability, DMSO vs non-targeting control": 0.95, "activity call": "inactive"}
{"Target gene": "ARAF (GeneID 369)", "PubChem SID": "SID152151166", "robust z-score, knock-down alone": 0.789, "viability, DMSO vs non-targeting control": 1, "activity call": "inactive"}
{"Target gene": "N4BP2 (GeneID 55728)", "PubChem SID": "SID152151934", "robust z-score, knock-down alone": 0.789, "viability, DMSO vs non-targeting control": 1, "activity call": "inactive"}
{"Target gene": "EPHB3 (GeneID 2049)", "PubChem SID": "SID56478503", "robust z-score, knock-down alone": -2.07, "viability, DMSO vs non-targeting control": 0.736, "activity call": "inactive"}

The list goes on, starting with the last 2 of the part before.
{"Target gene": "N4BP2 (GeneID 55728)", "PubChem SID": "SID152151934", "robust z-score, knock-down alone": 0.789, "viability, DMSO vs non-targeting control": 1, "activity call": "inactive"}
{"Target gene": "EPHB3 (GeneID 2049)", "PubChem SID": "SID56478503", "robust z-score, knock-down alone": -2.07, "viability, DMSO vs non-targeting control": 0.736, "activity call": "inactive"}
{"Target gene": "PRKCQ (GeneID 5588)", "PubChem SID": "SID56478674", "robust z-score, knock-down alone": 0.595, "viability, DMSO vs non-targeting control": 0.982, "activity call": "inactive"}
{"Target gene": "POLR2B (GeneID 5431)", "PubChem SID": "SID134315545", "robust z-score, knock-down alone": -4.31, "viability, DMSO vs non-targeting control": 0.529, "activity call": "active"}
{"Target gene": "MATK (GeneID 4145)", "PubChem SID": "SID152153842", "robust z-score, knock-down alone": 0.627, "viability, DMSO vs non-targeting control": 0.985, "activity call": "inactive"}
{"Target gene": "RSKR (GeneID 124923)", "PubChem SID": "SID56478814", "robust z-score, knock-down alone": 0.613, "viability, DMSO vs non-targeting control": 0.984, "activity call": "inactive"}
{"Target gene": "FGFR1 (GeneID 2260)", "PubChem SID": "SID135620619", "robust z-score, knock-down alone": 0.59, "viability, DMSO vs non-targeting control": 0.982, "activity call": "inactive"}
{"Target gene": "PMVK (GeneID 10654)", "PubChem SID": "SID135621255", "robust z-score, knock-down alone": -0.676, "viability, DMSO vs non-targeting control": 0.865, "activity call": "inactive"}
{"Target gene": "AXIN2 (GeneID 8313)", "PubChem SID": "SID135621652", "robust z-score, knock-down alone": 0.133, "viability, DMSO vs non-targeting control": 0.939, "activity call": "inactive"}
{"Target gene": "EIF2AK1 (GeneID 27102)", "PubChem SID": "SID56478942", "robust z-score, knock-down alone": -0.13, "viability, DMSO vs non-targeting control": 0.915, "activity call": "inactive"}
{"Target gene": "DUSP21 (GeneID 63904)", "PubChem SID": "SID134312829", "robust z-score, knock-down alone": 0.789, "viability, DMSO vs non-targeting control": 1, "activity call": "inactive"}
{"Target gene": "PNKP (GeneID 11284)", "PubChem SID": "SID56479144", "robust z-score, knock-down alone": -0.832, "viability, DMSO vs non-targeting control": 0.85, "activity call": "inactive"}
{"Target gene": "PIK3C2G (GeneID 5288)", "PubChem SID": "SID152155956", "robust z-score, knock-down alone": -1.49, "viability, DMSO vs non-targeting control": 0.789, "activity call": "inactive"}
{"Target gene": "SRGAP3 (GeneID 9901)", "PubChem SID": "SID152151814", "robust z-score, knock-down alone": 0.789, "viability, DMSO vs non-targeting control": 1, "activity call": "inactive"}
